{"sequences": {"note": "Amino acid sequences for entries named in this document (tags omitted).", "UniProt Q9Z1E3": "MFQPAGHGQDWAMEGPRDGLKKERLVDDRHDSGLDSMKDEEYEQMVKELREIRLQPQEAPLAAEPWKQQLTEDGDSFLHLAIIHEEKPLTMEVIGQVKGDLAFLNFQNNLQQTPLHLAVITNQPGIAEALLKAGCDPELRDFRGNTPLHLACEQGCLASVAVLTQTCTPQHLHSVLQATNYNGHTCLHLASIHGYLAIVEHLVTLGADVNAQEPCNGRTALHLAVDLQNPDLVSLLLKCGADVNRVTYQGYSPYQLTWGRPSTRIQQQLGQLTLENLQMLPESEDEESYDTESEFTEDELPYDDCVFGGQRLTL", "UniProt P25963": "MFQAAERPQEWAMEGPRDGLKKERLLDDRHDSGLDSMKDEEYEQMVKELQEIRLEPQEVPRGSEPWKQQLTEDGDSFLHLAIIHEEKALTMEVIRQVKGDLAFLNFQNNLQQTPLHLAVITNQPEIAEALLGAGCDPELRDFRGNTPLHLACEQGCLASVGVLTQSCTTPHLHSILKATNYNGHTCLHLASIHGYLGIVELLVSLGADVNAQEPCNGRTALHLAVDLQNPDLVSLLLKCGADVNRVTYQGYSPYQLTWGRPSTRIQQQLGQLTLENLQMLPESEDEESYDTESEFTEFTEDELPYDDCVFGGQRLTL"}, "source": "paper PMC10012460", "molecules": {"B1": {"name": "Ubiquitin-specific protease 13 (USP13), endogenous in BV2 microglia (enzyme, UniProt Q5BKP2 1-858)", "chain": "MQRRGALFSVPGGGGKMAAGDLGELLVPHMPTIRVPRSGDRVYKNECAFSYDSPNSEGGLYVCMNTFLAFGREHVERHFRKTGQSVYMHLKRHMREKVRGASGGALPKRRNSKIFLDLDMDDDLNSDDYEYEDEAKLVIFPDHYEIALPNIEELPALVTIACDAVLSSKSPYRKQDPDTWENEVPVSKYANNLVQLDNGVRIPPSGWKCARCDLRENLWLNLTDGSVLCGKWFFDSSGGNGHALEHYRDMGYPLAVKLGTITPDGADVYSFQEEGPVSDPHLAKHLAHFGIDMLHTQGTENGLRDNDIKPRVSEWEVIQESGTKLKPMYGPGYTGLKNLGNSCYLSSVMQAIFSIPEFQRAYVGNLPRIFDYSPLDPTQDFNTQMTKLGHGLLSGQYSKPPVKSELIEQVMKEEHKPQQNGISPRMFKAFVSKSHPEFSSNRQQDAQEFFLHLVNLVERNRIGSENPSDVFRFLVEERIQCCQTRKVRYTERVDYLMQLPVAMEAATNKDELITYELMRREAEANRRPLPELVRAKIPFSACLQAFAEPDNVDDFWSSALQAKSAGVKTSRFASFPEYLVVQIKKFTFGLDWVPRKFDVSIDMPDLLDISHLRARGLQPGEEELPDISPPIVIPDDSKDRLMNQLIDPSDIDESSVMQLAEMGFPLEACRKAVYFTGNTGAEVAFNWIIVHMEEPDFAEPLAIPGYGGAGASVFGATGLDNQPPEEIVAIITSMGFQRNQAVQALQATNHNLERALDWIFSHPEFEEDSDFVIEMENNANANIVSEAKPEGPRVKDGSGMYELFAFISHMGTSTMSGHYVCHIKKEGRWVIYNDHKVCASERPPKDLGYMYFYRRIPS"}}, "key": {"Flag-tagged USP13 (WT)": {"biological_target": "T1, Flag-tagged USP13 (WT) (UniProt Q92995)", "T1 sequence": "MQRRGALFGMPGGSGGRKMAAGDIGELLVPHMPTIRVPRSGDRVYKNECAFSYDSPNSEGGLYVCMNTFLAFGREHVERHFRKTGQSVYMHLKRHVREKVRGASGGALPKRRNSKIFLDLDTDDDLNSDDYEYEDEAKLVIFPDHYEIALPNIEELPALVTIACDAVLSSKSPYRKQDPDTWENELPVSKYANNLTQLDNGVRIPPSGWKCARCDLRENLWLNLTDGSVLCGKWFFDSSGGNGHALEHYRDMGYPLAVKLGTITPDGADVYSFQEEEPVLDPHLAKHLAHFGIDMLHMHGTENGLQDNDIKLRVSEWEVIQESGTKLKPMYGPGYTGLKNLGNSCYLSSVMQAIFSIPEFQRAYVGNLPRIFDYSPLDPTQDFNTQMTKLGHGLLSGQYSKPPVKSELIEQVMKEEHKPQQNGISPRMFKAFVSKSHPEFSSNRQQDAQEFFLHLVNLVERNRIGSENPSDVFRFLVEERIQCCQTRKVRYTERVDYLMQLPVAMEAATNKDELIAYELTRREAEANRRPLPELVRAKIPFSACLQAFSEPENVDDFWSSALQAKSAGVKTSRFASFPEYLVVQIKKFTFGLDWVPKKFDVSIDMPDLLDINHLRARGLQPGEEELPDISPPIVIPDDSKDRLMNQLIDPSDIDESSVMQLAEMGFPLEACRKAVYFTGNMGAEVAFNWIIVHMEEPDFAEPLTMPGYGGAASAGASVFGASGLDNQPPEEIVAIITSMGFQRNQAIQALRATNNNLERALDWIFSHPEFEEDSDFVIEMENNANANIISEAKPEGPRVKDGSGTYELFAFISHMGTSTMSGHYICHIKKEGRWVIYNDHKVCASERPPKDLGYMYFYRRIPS", "experiment": "co-IP; HEK 293T cells transfected with Flag-tagged USP13 and Myc-tagged IκBα plasmids; RIPA lysate, immunoprecipitation with specific antibodies and protein A/G plus-agarose at 4 °C overnight, immunoblot"}, "[1]": {"biological_target": "T2, Ubiquitin-specific protease 13 (USP13), endogenous in BV2 microglia (mouse (endogenous in BV2)) (UniProt Q5BKP2)", "T2 sequence": "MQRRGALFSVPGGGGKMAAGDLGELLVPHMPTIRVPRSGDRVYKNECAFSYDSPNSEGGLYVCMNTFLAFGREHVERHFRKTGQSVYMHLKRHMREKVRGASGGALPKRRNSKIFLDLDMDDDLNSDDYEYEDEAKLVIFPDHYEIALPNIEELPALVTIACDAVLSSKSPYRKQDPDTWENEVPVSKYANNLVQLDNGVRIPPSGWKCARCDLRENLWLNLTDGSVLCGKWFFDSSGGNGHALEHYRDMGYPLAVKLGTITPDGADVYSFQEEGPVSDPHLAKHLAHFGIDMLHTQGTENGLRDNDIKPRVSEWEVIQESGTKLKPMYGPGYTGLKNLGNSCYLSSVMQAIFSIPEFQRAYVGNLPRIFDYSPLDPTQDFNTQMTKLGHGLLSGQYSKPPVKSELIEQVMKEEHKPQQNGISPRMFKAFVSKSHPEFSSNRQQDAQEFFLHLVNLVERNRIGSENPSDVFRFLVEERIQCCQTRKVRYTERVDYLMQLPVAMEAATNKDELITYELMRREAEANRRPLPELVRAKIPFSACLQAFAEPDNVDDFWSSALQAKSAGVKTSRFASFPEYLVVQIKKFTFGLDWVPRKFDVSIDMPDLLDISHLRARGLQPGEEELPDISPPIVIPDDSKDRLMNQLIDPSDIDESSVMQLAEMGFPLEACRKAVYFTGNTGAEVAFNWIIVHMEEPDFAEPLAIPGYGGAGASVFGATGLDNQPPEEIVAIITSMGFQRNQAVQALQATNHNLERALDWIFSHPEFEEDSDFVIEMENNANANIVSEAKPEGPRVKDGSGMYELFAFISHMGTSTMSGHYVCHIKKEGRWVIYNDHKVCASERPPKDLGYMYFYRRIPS", "experiment": "co-IP; endogenous proteins in BV2 microglia; RIPA lysate, precleared with control IgG and protein A/G plus-agarose, immunoprecipitated with USP13 or IκBα antibody at 4 °C overnight, washed five times, immunoblot"}, "[2]": {"biological_target": "NF-κB inhibitor alpha (IκBα), endogenous in BV2 microglia (mouse (endogenous in BV2)) (UniProt Q9Z1E3)", "experiment": "co-IP; endogenous proteins in BV2 microglia; RIPA lysate, precleared with control IgG and protein A/G plus-agarose, immunoprecipitated with USP13 or IκBα antibody at 4 °C overnight, washed five times, immunoblot"}}, "note": "No constants are given. Whether binding was seen depends on the method and setting. Binding seen in cells or lysates may run through a third protein. Some entries that bind do so weakly or less than the wild type. For part of these data: Sequences can lack the tags named with a protein.", "data": [{"molecule": "Myc-tagged IκBα (from UniProt P25963 1-317)", "values": [{"measurement": "binding", "setting": "Flag-tagged USP13 (WT)", "result": "binds"}]}, {"molecule": "NF-κB inhibitor alpha (IκBα), endogenous in BV2 microglia (from UniProt Q9Z1E3 1-314)", "values": [{"measurement": "binding", "setting": "[1]", "result": "binds"}]}, {"molecule": "B1", "values": [{"measurement": "binding", "setting": "[2]", "result": "binds"}]}]}
